Results: patent US20250223358A1
Results are given in words; binding and its absence hold for the method and conditions named. Some results given as binding are weak or reduced against the parent protein; the word gives no strength.

Chains of the proteins cited; added tags and fusions are not shown. Lines headed by an entry give the natural chain unless they say otherwise; changes in a name come on top.
UniProt Q95LI5: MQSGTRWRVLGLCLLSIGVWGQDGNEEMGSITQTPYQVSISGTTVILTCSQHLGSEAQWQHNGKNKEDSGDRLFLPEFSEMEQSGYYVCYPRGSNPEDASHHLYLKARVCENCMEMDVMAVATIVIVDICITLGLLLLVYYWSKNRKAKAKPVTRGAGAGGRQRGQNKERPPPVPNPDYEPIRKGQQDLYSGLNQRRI
UniProt Q95LI8: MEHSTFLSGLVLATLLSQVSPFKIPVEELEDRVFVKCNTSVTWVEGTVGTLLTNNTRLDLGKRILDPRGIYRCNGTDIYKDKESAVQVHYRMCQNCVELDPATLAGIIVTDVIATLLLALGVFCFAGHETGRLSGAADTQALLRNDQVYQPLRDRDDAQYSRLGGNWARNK
UniProt Q95LI7: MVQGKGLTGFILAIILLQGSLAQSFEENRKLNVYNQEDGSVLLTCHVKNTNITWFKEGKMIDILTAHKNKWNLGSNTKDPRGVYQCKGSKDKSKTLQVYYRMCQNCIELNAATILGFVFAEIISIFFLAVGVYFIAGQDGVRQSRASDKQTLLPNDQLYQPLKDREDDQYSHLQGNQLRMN
UniProt P07766: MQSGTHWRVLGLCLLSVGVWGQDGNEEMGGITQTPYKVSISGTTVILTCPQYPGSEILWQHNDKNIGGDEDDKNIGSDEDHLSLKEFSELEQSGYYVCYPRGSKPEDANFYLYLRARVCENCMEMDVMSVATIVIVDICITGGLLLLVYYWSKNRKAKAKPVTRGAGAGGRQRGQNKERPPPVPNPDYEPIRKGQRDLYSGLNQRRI
UniProt P04234: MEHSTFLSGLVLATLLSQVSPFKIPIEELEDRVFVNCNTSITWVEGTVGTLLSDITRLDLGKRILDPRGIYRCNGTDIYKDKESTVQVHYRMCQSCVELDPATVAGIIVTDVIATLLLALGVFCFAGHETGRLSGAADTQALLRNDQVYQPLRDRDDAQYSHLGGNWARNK
UniProt P09693: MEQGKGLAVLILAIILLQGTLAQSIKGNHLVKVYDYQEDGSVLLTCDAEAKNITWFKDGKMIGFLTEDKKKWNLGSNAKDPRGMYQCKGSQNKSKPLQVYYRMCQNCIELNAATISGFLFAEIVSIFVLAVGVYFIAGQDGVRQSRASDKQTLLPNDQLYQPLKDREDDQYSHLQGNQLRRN

What was measured:
[1] = target: T1, cynomolgus CD3 (cynomolgus (Macaca fascicularis)) (UniProt Q95LI5+Q95LI8+Q95LI7); experiment: FACS on 293T-cynoCD3mix cells
[2] = target: T1, cynomolgus CD3 (cynomolgus (Macaca fascicularis)); experiment: binding test of N55 deamidation-site mutants (hu147E2-L1H3a; FACS data given for 293T-cynoCD3mix)
[3] = target: T1, cynomolgus CD3 (cynomolgus (Macaca fascicularis)); experiment: binding test of N55 deamidation-site mutants (hu147E2-L1H3b; FACS data given for 293T-cynoCD3mix)
human CD3 (human) [4] = target: T2, human CD3 (human) (UniProt P07766+P04234+P09693); experiment: FACS on 293T-hCD3mix cells
human CD3 (human) [5] = target: T2, human CD3 (human); experiment: FACS on Jurkat cells
[6] = target: T1, cynomolgus CD3 (cynomolgus (Macaca fascicularis)); experiment: FACS on 293F-cynoCD3mix cells

Binder	binding (human CD3 (human) [4])	binding (human CD3 (human) [5])	binding [6]	also measured
hu147E2-L1H3a (antibody, V domains shown) VH: EVQLVQSGAEVKKPGSSVKVSCKASGYTFTSYWMHWVRQAPGQGLEWMGNINPSQGATNYNEKFKSRVTLTVDKSTSTAYMELSSLRSEDTAVYYCARDRSSQYYFDYWGQGTTVTVSS VL: DIVMTQSPDSLAVSLGERATINCKSSQSLLNSRSRKNYLAWYQQKPGQPPKLLIYWASTRESGVPDRFSGSGSGTDFTLTISSLQAEDVAVYYCTQSYTLRTFGGGTKVEIK				binding [1]: binds; binding [2]: binds
hu147E2-L1H3b (antibody, V domains shown) VH: EVQLVQSGAEVKKPGSSVKVSCKASGYTFTSYWMHWVRQAPGQGLEWMGNINPSSGATNYNEKFKSRVTLTVDKSTSTAYMELSSLRSEDTAVYYCARDRSSQYYFDYWGQGTTVTVSS VL: DIVMTQSPDSLAVSLGERATINCKSSQSLLNSRSRKNYLAWYQQKPGQPPKLLIYWASTRESGVPDRFSGSGSGTDFTLTISSLQAEDVAVYYCTQSYTLRTFGGGTKVEIK				binding [1]: binds; binding [3]: binds
2-F12-A6-G2 (antibody, V domains shown) VH: EVQLVESRPGLVAPSQSLSITCTVSGFSLTSYGVSWVRQPPGKGLEWLGVIWGDGNTNYNSDLKTSLSISKDNSKSQVFLKLDSLQTDDTATYYCAKVSYWYFDVWGTGTTVTVSS VL: DIQLTQPPASLSASVGETVTITCRASENIYSYLAWYQQKQGKSPQLLVYNAKTLPEGVPSRFSGSGSGTQFSLKINSLQPEDFGTYYCQHHYGTPPTFGTGTKLELK	binds			
4-F12-F1-A4 (antibody, V domains shown) VH: EVKLVESGGGLVKPGGSLKLSCAASGFTFSSYTMSWIRQTPAKRLEWVATISSGGGNTFYADSVKGRFTISRDNARNTLNLQMSSLRSEDTAMYYCARSLYYYDGTYVRKDYYAMDYWGQGSSVTVSS VL: DIQMTQSPASLSVSVGETVTISCRASENIFSNLAWYQQKQGKSPQLLVYAATNLAEGVPSRFSGSRSGTQFSLKINSLQSEDFGSYYCQQFWGTPWTFGGGTKLEVK	binds			
124E3D6 (antibody, V domains shown) VH: QVQLQQPGTELVKPGASVKLSCKASGYTFTSYWMHWVKQRPGQGLEWIGNINPSNGDTNYNEKFKSKATLTVDKSSSTAYMQLSSLTSEDSAVYYCARDRSSQYYFDYWGQGTTLTVSS VL: DIVMSQSPSSLAVSAGEKVTMSCKSSQSLLNSRTRKNYLAWYQQKPGQSPKLLIYWASTRESGVPDRFTGSGSGTDFTLTISSVQAEDLAVYYCKQSYNLRTFGGGTKLEIK		binds	binds	
126A11A4 (antibody, V domains shown) VH: QVQLQQPGTELVKPGASVKLSCKASGYTFTSYWMHWVKQRPEQGLEWIGNINPSNGDTNYNEKFKSKATLTVDKASNTAYMQLSSLTSEDSAVYYCGRDRSSQYYFDYWGQGTTLTVSS VL: DIVMSQSPSSLAVSAGEKVTMSCKSSQSLLNSRTRKNYLAWYQQKPGQSPKLLIYWASTRESGVPDRFTGSGSGTDFTLTISSVQAEDLAVYFCKQSFILRTFGGGTKLEIK		binds	binds	
20-E11-E11-C2 (antibody, V domains shown) VH: EVQLQQSGPEVVKPGASVKISCKASGYTFTDYYMNWVKQSHGKNLEWIGDINPIHGGISSNQKFSDKATLTVDKSSNTAYLELRSLTSEDSAIYYCARRIYYGYDWYFDVWGTGTTVTVSS VL: DIVLSQSPAIMSASPGERVTMTCSASSSVTSRYFFWYQQKPGSSPKLWIYSTSNLASGVPVRFSGSGSGTSYSLTINNMAAEDAATYYCQQYSTSPSTFGAGTKLELK	binds			
7-D8-G12-E4 (antibody, V domains shown) VH: EVKLVESGGGLVKPGGSLKLSCAASGFTFSSYPMSWVRQTPAKRLEWVATISSGGGNTYYPDSVKGRFTISRDNARNTLYLQMSSLRSEDTAMYYCARGLYWYFDVWGAGTTVTVSS VL: DIVLTQSPLSLPVSLGDQASISCRSSQSIAHSNGDTYLEWYLQNPGQSPKLLIYKVSNRISGVPDRFSGSGSGTDFTLKISRVEAEDLGVYYCFQGSHVPYTFGGGTKLEIK	binds			
3-C6-C11-F12 (antibody, V domains shown) VH: EVHLVESGGGLVQPGGSRKLSCAGSGFTFSTYGMHWVRQAPEKGLEWVAYISNGGSTIYYADSVKGRFTISRDNPNDTLFLHMTSLGSEDTAMYYCARPTWGGFAYWGQGTLVTVSA VL: DIVLTQSPLSLPVSLGDQASISCRSSQSIAHSNGDTYLEWYLQNPGQSPKLLIYKVSNRISGVPDRFSGSGSGTDFTLKISRVEAEDLGVYYCFQGSHVPYTFGGGTKLEIK	binds			

The next lines start with results.

binding (human CD3 (human) [4])	binding (human CD3 (human) [5])	binding [6]	Binder	also measured
	binds	binds	147C6F3 (antibody, V domains shown) VH: QVQLQQPGTELVKPGASVKLSCKASGYTFDSYWMHWVKQRPGQGLEWIGNLNPSNGEINYNEKFKHKATLTVDKSSSTAYMQLSSLTSEDSAVYYCSRDRSSQYYFDYWGQGTTLTVSS VL: DIVMSQSPSSLAVSAGEKVTLSCKSSQSLLNSRTRKNYLAWYQQKSGQSPKLLMYWASTRESGVPDRFTGSGSGTDFTLTITNVQAEDLAVYYCKQSYILRTFGGGTKLEIK	
	binds	binds	140D2B10 (antibody, V domains shown) VH: QVQLQQPGTELVKPGASVKLSCKASGYTFTSYWMHWVKQRPGQGLEWIGNINPSNGESNYNEKFKSKATLTVDKSSSTAYMQLSSLTSEDYAVYYCARDRSSQYYFDYWGQGTTLTVSS VL: DIVMSQSPSSLAVSAGEKVTMSCKSSQSLLNSRTRKNYLAWYQQKPGQSPKLLIYWASTRESGVPDRFTGSGSGTDFTLTISSVQAEDLAVYYCKQSYTLRTFGGGTKLEIK	
	binds	binds	147E11E2 (antibody, V domains shown) VH: QVQLQQPGTELVKPGTSVKLSCKASGYTFTSYWMHWVKQRPGQGLEWIGNINPSNGATNYNEKFKSKATLTVDKSSSTAYMQLSSLTSEDSAVYYCARDRSSQYYFDYWGQGTTLTVSS VL: DIVMSQSPSSLAVSAGEKVTMSCKSSQSLLNSRSRKNYLAWYQQKPGQSPKLLIYWASTRESGVPDRFTGSGSGTDFTLTISSVQAEDLAVYYCTQSYTLRTFGGGTKLEIK	
	binds	binds	133B4C7 (antibody, V domains shown) VH: QVQLQQPGTELVKPGASVKLSCKASGYTFTSYWMHWVKQRPGQGLEWIGNINPSNGDTNFNEKFKSKATLTVDKSSSTAYMQLSSLTSEDSAVYYCARDRSSQYYFDYWGQGTTLTVSS VL: DIVMSQSPSSLAVSAGEKVTMSCNSSQSLLNSRTRKNYLAWYQQKPGQSPKLLIYWASTRESGVPDRFTGSGSGTDFTLTISSVQAEDLAVYYCKQSYTLRTFGGGTKLEIK	
	binds	binds	127E2D3 (antibody, V domains shown) VH: QVQLQQPGTELVKPGASVKLSCKASGYTFTSYWMHWVKQRPGEGLEWIGNIYPGSSSINYNEKFKSKATLTVDKSSSTAYMQLSSLTSEDSAVYYCARDRSSQYYFDYWGQGTTLTVSS VL: DIVMSQSPSSLAVSAGEKVTMSCKSSQSLLNSRTRKNYLAWYQQKPGQSPKLLIYWASTRESGVPDRFTGSGSGTDFTLTISSVQAEDLAVYYCTQSYNLRTFGGGTKLEIK	
